Not every detail of the peptide structures is certain; ends, links or a residue may be inferred. Where no end group is shown, it is not given here.
Tests used:
[1] = tested on: Factor X coagulant activity, RVV-X pathway; assay: Two-stage clotting assay, RVV-X mediated activation of Factor X; parameters: species or system human; conditions: for IC50: clotting assay, read-out: Concentration for 50% Inhibition, Coagulant Activity, RVV.X
RVV-X = RVV-X (Daboia siamensis, UniProt Q4PRD1+Q4PRD2+Q7LZ61); assay type: biochemical, Russell's viper; conditions: for IC50: read-out: Concentration for 50% Inhibition, Rate of Factor Xa Formation, RVV.X; for Ki: read-out: Ki for Factor X Activation, RVV-X
[2] = tested on: Factor X coagulant activity, extrinsic pathway; assay: Two-stage clotting assay, extrinsic activation of Factor X; conditions: read-out: peptide concentration for 50% inhibition of Factor X coagulant activity; span over the three activation complexes (extrinsic, intrinsic, RVV-X)

By UniProt entry, the sequences of proteins in these tests, tags left out. Residues count along the entry.
UniProt Q4PRD1, 24-146 limits assumed: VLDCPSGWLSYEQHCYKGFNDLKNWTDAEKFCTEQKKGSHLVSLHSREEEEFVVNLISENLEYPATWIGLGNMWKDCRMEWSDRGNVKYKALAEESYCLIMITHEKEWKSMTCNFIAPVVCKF
UniProt Q4PRD2, 25-158 limits assumed: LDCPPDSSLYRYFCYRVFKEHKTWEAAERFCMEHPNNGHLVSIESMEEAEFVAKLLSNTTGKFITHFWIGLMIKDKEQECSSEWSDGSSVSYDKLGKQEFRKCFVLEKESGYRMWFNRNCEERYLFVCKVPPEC
UniProt Q7LZ61, 189-615 limits assumed: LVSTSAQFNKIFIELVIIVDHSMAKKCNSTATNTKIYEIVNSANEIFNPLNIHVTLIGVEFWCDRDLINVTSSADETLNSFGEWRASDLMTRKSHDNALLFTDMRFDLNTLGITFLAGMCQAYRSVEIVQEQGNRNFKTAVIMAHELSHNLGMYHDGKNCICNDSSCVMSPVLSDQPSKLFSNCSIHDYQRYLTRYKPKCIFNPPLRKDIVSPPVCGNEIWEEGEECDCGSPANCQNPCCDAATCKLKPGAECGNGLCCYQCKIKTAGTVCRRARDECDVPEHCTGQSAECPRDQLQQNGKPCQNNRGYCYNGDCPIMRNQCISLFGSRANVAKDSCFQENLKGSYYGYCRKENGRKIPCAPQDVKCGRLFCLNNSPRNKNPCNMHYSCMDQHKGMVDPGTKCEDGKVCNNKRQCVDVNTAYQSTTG

| Sequence | inhibition of RVV-X pathway Factor X coagulant activity ([1]; clot formation assay) | IC50 [1] [µM] | IC50 (RVV-X) [µM] | Ki (RVV-X) [µM] | IC50 [2] [µM] |
| --- | --- | --- | --- | --- | --- |
| AFLKWIDRSMKTRGL [Peptide 417-431] | very effective inhibitor | 20 | 208 | 361 ± 56.4 | – |
| VVIKHNRFTKETYDFDI [Peptide 267-283] | – | 60 | 19 | 8.69 ± 2.2 | 23 to 60 |
